# Source: the supplement of paper PMC8728848
# Some of the results follow.
# B1: MIC2 (Toxoplasma gondii), S8F9G8 (protein)
# chain: MRLQREAVFGLMFACGMWMWPSEVAGGGWSIVDALRKRYDTSRGGDANGVDTSGVEDVIQSESAIGAAEGCTNQLDICFLIDSSGSIGIQNFRLVKQFLHTFLMVLPIGPEEVNNAVVTYSTDVHLQWDLQSPNAVDKQLAAHAVLDMPYKKGSTNTSDGLKACKQILFTGSRPGREHVPKLVIGMTDGESDSDFRTVRAAKEIRELGGIVTVLAVGHYVKHSECRSMCGCSGTSDDDSPCPLYLRADWGQLATAIKPMLKEVCKTLPQDAICSDWSAWSPCSVSCGDGSQIRTRTEVSAPQPGTPTCPDCPAPMGRTCVEQGGLEEIRECSAGVCAVDAGCGVWGEWSAWSASCGNATRKRERTRYNDPPPQGAGRRCENQDPPVLQEQTEEATLAPCITIPPTPPEWAAWSDCTVTCGGGNRHRVRNALPPGLGSQNGESDESLVSKLWPGTDLRQEEACNTSPCPINATCGQFEEWSTCSVSCGGGLKTRSRNPWNEDQQHGGLSCEQQHPGGRTETITCNPQACPVDERPGEWAEWGECSVTCGDGVRERRRGKSLVEAKFGGRTIDQQNEALPEDLKIKNVEYEPCSYPACGASCTYVWSDWNKCVCPMGYQARHAAVKFDYRNKPCDLPTFETKACSCGETNPVPSEGTTPGAPGATGPEQPNQRPLPEGSDENETPTNEEGEQSKKESGSGIAGAIAGGVIGGLILLGAAGGASYHYYLSSSVGSPSAEIEYEADDGATKVVMEEEKETLVPVDDDSDMWME
# Key:
# Assay in all cases: glycan array binding signal (z-score within array); higher = stronger binding
# Conditions in all cases: glycan notation: IUPAC condensed, linker removed
# [1] = target: Neu5Ac(a2-3)Gal(b1-3)GlcNAc(b1-3)Gal(b1-3)GlcNAc
# Summary of the method: (§1)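 Glycan array data were curated from 3228 arrays in the Consortium for Functional Glycomics database and kept only where the protein sequence was available. Glycan names were converted to IUPAC-condensed notation, and columns mapping to the same glycan were averaged. The binding signal is a within-array Z-score, averaged across arrays of the same protein sequence at different concentrations or buffers and across linkers. Negative Z-scores can be read as non-binding.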
# [2] = target: Neu5Ac(a2-3)Gal(b1-3)GlcNAc(b1-3)Gal(b1-4)GlcNAc
# Summary of the method: as §1
# [3] = target: Neu5Ac(a2-3)Gal(b1-3)GlcNAc(b1-3)GalNAc
# Summary of the method: as §1
# [4] = target: Neu5Ac(a2-3)Gal(b1-3)GlcNAc6S
# Summary of the method: as §1
# [5] = target: Neu5Ac(a2-3)Gal(b1-3)[Fuc(a1-4)]GlcNAc
# Summary of the method: as §1
# [6] = target: Neu5Ac(a2-3)Gal(b1-3)[Fuc(a1-4)]GlcNAc(b1-3)Gal(b1-3)[Fuc(a1-4)]GlcNAc
# Summary of the method: as §1
# [7] = target: Neu5Ac(a2-3)Gal(b1-3)[Fuc(a1-4)]GlcNAc(b1-3)Gal(b1-4)[Fuc(a1-3)]GlcNAc
# Summary of the method: as §1
# [8] = target: Neu5Ac(a2-3)Gal(b1-3)[Neu5Ac(a2-3)Gal(b1-4)]GlcNAc
# Summary of the method: as §1
# [9] = target: Neu5Ac(a2-3)Gal(b1-3)[Neu5Ac(a2-6)]GalNAc
# Summary of the method: as §1
# [10] = target: Neu5Ac(a2-3)Gal(b1-4)Glc
# Summary of the method: as §1
# [11] = target: Neu5Ac(a2-3)Gal(b1-4)GlcNAc
# Summary of the method: as §1
# [12] = target: Neu5Ac(a2-3)Gal(b1-4)GlcNAc(b1-2)Man(a1-3)[GlcNAc(b1-2)Man(b1-4)GlcNAc(b1-2)Man(a1-6)]Man(b1-4)GlcNAc(b1-4)GlcNAc
# Summary of the method: as §1
# [13] = target: Neu5Ac(a2-3)Gal(b1-4)GlcNAc(b1-2)Man(a1-3)[Neu5Ac(a2-6)Gal(b1-4)GlcNAc(b1-2)Man(a1-6)]Man(b1-4)GlcNAc(b1-4)GlcNAc
# Summary of the method: as §1
# [14] = target: Neu5Ac(a2-3)Gal(b1-4)GlcNAc(b1-3)Gal(b1-3)GlcNAc
# Summary of the method: as §1
# [15] = target: Neu5Ac(a2-3)Gal(b1-4)GlcNAc(b1-3)Gal(b1-4)GlcNAc
# Summary of the method: as §1
# [16] = target: Neu5Ac(a2-3)Gal(b1-4)GlcNAc(b1-3)Gal(b1-4)GlcNAc(b1-3)Gal(b1-4)GlcNAc
# Summary of the method: as §1
# [17] = target: Neu5Ac(a2-3)Gal(b1-4)GlcNAc(b1-3)Gal(b1-4)[Fuc(a1-3)]GlcNAc
# Summary of the method: as §1
# [18] = target: Neu5Ac(a2-3)Gal(b1-4)GlcNAc(b1-3)GalNAc
# Summary of the method: as §1
# [19] = target: Neu5Ac(a2-3)Gal(b1-4)GlcNAc(b1-6)[Gal(b1-3)]GalNAc
# Summary of the method: as §1
# [20] = target: Neu5Ac(a2-3)Gal(b1-4)GlcNAc(b1-6)[Neu5Ac(a2-3)Gal(b1-3)]GalNAc
# Summary of the method: as §1
# [21] = target: Neu5Ac(a2-3)Gal(b1-4)GlcNAc6S
# Summary of the method: as §1
# [22] = target: Neu5Ac(a2-3)Gal(b1-4)[Fuc(a1-3)]GlcNAc
# Summary of the method: as §1
# [23] = target: Neu5Ac(a2-3)Gal(b1-4)[Fuc(a1-3)]GlcNAc(b1-3)Gal
# Summary of the method: as §1
# [24] = target: Neu5Ac(a2-3)Gal(b1-4)[Fuc(a1-3)]GlcNAc(b1-3)Gal(b1-4)GlcNAc
# Summary of the method: as §1
# [25] = target: Neu5Ac(a2-3)Gal(b1-4)[Fuc(a1-3)]GlcNAc(b1-3)Gal(b1-4)[Fuc(a1-3)]GlcNAc(b1-3)Gal(b1-4)[Fuc(a1-3)]GlcNAc
# Summary of the method: as §1
# [26] = target: Neu5Ac(a2-3)Gal(b1-4)[Fuc(a1-3)]GlcNAc(b1-3)GalNAc
# Summary of the method: as §1
# [27] = target: Neu5Ac(a2-3)Gal(b1-4)[Fuc(a1-3)]GlcNAc(b1-6)[Gal(b1-3)]GalNAc
# Summary of the method: as §1
# [28] = target: Neu5Ac(a2-3)Gal(b1-4)[Fuc(a1-3)]GlcNAc(b1-6)[Neu5Ac(a2-3)Gal(b1-3)]GalNAc
# Summary of the method: as §1
# [29] = target: Neu5Ac(a2-3)Gal(b1-4)[Fuc(a1-3)]GlcNAc6S
# Summary of the method: as §1
# [30] = target: Neu5Ac(a2-3)Gal6S(b1-4)GlcNAc
# Summary of the method: as §1
binder,measurement,setting,value
B1,glycan array binding signal (z-score),[1],-0.331
same,glycan array binding signal (z-score),[2],-0.031
same,glycan array binding signal (z-score),[3],-0.407
same,glycan array binding signal (z-score),[4],0.518
same,glycan array binding signal (z-score),[5],-1.11
same,glycan array binding signal (z-score),[6],0.89
same,glycan array binding signal (z-score),[7],-0.271
same,glycan array binding signal (z-score),[8],-1.06
same,glycan array binding signal (z-score),[9],0.368
same,glycan array binding signal (z-score),[10],-0.601
same,glycan array binding signal (z-score),[11],0.221
same,glycan array binding signal (z-score),[12],-0.575
same,glycan array binding signal (z-score),[13],-0.088
same,glycan array binding signal (z-score),[14],-0.156
same,glycan array binding signal (z-score),[15],-0.177
same,glycan array binding signal (z-score),[16],-0.616
same,glycan array binding signal (z-score),[17],0.678
same,glycan array binding signal (z-score),[18],-0.65
same,glycan array binding signal (z-score),[19],-0.459
same,glycan array binding signal (z-score),[20],0.452
same,glycan array binding signal (z-score),[21],0.052
same,glycan array binding signal (z-score),[22],-0.787
same,glycan array binding signal (z-score),[23],-0.967
same,glycan array binding signal (z-score),[24],1.5
same,glycan array binding signal (z-score),[25],-0.934
same,glycan array binding signal (z-score),[26],2.18
same,glycan array binding signal (z-score),[27],3.24
same,glycan array binding signal (z-score),[28],1.33
same,glycan array binding signal (z-score),[29],-0.949
same,glycan array binding signal (z-score),[30],0.368

# Exported with tabs: entries from further up.
binder	measurement	setting	value
B1	glycan array binding signal (z-score)	[13]	-0.088
same	glycan array binding signal (z-score)	[14]	-0.156
same	glycan array binding signal (z-score)	[15]	-0.177
same	glycan array binding signal (z-score)	[16]	-0.616
same	glycan array binding signal (z-score)	[17]	0.678
